Data reported in the supplement of paper PMC12823440, “Inhibitors supercharge kinase turnover through native proteolytic circuits” (Nature, 2025).
The list shows a part of the results. The calls rarely recur for the same compound in another form.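 Kinases were expressed as nanoluciferase fusions in K562 cells and luminescence was read every 4 h between 2 and 18 h as percent of control, DMSO set to 100% and a positive control to 0%. A time point counts as decreased when the signal drops significantly (2 sigma). The hit call is the authors' own, does not follow from the count of time points alone, and its rule is not shown.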

The chains behind the UniProt entries cited, without tags or fusion partners. Where a name states a change or a piece, a line headed by the entry shows the natural chain unless it says otherwise.
UniProt P29317, whole entry: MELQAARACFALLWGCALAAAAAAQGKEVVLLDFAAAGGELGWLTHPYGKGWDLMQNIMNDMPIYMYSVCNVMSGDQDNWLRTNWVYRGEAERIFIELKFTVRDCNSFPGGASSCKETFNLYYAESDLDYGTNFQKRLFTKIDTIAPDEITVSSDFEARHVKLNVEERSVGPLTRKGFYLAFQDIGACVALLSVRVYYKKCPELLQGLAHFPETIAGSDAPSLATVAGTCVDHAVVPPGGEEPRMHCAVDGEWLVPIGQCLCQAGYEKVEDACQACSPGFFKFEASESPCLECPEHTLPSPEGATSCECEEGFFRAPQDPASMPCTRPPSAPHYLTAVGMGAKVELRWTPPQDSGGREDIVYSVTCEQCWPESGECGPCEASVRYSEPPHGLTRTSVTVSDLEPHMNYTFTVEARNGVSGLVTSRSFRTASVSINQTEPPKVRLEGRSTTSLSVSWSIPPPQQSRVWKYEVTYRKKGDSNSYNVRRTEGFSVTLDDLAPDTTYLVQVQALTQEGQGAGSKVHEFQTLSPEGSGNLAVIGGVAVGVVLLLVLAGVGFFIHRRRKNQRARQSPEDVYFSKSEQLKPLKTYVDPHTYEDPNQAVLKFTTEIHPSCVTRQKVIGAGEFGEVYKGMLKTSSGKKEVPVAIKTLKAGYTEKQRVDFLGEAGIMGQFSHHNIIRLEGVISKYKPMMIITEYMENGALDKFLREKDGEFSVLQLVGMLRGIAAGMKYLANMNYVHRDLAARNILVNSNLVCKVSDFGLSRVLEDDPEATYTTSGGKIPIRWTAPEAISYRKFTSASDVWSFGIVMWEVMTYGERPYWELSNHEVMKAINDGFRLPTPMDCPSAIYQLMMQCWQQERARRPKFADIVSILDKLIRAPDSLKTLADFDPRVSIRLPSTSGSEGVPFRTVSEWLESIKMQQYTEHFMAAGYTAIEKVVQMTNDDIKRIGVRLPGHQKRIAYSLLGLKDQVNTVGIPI
UniProt P21802, whole entry, looked up: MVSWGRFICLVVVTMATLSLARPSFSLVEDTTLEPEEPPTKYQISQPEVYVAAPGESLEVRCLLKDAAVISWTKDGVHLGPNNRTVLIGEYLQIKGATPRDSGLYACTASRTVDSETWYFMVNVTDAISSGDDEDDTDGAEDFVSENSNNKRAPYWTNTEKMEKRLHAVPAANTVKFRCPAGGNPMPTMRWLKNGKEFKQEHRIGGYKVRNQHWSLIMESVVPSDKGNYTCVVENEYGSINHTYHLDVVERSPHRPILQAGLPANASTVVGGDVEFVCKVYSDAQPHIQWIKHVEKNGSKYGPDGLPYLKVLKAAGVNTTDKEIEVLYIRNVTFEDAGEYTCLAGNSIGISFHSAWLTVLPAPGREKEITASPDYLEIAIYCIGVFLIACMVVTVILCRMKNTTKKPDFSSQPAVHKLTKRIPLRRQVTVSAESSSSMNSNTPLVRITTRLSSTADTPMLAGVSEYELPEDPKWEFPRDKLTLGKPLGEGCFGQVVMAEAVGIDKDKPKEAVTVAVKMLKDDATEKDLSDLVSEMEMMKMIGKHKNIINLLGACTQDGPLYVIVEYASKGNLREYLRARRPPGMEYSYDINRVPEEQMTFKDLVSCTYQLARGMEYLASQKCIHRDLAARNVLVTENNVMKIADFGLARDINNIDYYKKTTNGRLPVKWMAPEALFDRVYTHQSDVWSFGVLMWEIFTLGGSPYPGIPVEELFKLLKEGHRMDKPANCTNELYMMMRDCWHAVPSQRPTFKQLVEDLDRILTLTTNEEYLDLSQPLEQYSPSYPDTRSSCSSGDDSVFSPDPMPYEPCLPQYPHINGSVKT
UniProt P22607, whole entry, looked up: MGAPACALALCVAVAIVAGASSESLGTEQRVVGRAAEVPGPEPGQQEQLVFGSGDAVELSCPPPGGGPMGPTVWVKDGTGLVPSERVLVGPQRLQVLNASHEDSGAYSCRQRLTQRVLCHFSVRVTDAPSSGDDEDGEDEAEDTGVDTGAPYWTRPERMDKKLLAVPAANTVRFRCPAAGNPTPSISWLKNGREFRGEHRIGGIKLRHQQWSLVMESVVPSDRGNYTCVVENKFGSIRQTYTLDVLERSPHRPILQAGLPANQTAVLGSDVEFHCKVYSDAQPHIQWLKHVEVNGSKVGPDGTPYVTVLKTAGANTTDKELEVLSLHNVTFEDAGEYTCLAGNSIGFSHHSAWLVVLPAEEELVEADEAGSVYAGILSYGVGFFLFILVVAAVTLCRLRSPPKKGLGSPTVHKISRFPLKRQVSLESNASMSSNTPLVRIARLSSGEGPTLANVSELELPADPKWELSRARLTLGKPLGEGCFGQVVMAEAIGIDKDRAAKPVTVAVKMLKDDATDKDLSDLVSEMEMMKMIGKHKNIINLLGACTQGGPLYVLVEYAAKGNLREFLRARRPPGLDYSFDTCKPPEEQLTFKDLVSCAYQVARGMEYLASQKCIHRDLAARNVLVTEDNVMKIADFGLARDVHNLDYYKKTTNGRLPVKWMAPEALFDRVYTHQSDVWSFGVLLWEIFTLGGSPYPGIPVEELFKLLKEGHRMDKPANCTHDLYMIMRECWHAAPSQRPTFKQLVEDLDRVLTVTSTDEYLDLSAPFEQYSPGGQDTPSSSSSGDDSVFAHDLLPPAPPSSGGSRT
UniProt P36888, whole entry: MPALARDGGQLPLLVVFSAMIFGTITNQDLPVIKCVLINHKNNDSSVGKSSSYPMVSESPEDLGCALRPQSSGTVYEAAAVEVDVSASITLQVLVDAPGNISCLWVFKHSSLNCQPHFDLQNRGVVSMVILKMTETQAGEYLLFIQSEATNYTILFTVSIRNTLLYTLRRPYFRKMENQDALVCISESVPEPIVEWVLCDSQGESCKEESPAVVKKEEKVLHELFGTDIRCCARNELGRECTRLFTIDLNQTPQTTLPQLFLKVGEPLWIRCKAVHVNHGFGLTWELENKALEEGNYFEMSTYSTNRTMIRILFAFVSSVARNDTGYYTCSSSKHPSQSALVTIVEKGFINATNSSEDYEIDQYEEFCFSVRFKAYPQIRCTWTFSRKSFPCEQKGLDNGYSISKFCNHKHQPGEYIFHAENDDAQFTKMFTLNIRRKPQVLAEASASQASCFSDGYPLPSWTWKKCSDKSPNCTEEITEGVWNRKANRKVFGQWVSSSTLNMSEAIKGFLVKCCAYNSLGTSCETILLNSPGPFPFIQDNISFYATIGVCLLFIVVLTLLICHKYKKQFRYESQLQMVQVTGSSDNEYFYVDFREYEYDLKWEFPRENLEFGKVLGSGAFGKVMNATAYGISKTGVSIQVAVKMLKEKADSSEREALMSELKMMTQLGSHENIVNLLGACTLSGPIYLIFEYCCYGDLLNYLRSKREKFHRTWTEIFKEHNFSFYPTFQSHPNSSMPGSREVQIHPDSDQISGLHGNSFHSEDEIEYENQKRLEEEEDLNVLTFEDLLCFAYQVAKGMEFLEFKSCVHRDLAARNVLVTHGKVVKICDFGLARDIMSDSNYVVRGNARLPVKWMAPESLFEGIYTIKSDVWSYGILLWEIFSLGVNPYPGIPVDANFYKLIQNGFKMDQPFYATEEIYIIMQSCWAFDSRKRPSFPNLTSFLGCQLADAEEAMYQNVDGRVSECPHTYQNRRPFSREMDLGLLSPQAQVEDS
UniProt P49840: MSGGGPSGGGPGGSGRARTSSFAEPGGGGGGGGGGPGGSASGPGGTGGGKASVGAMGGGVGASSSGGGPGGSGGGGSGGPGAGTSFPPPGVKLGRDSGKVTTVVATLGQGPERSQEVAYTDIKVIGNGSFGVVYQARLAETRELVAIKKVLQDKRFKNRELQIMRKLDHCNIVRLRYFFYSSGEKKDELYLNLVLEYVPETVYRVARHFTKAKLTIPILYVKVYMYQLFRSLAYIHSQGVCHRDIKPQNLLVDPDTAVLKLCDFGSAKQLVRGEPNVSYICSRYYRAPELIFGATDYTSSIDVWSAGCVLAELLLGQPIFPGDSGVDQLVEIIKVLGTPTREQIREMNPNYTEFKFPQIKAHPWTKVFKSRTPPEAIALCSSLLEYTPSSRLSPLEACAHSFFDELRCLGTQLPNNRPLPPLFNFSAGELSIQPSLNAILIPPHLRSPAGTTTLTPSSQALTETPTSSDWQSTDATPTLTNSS
UniProt P14616: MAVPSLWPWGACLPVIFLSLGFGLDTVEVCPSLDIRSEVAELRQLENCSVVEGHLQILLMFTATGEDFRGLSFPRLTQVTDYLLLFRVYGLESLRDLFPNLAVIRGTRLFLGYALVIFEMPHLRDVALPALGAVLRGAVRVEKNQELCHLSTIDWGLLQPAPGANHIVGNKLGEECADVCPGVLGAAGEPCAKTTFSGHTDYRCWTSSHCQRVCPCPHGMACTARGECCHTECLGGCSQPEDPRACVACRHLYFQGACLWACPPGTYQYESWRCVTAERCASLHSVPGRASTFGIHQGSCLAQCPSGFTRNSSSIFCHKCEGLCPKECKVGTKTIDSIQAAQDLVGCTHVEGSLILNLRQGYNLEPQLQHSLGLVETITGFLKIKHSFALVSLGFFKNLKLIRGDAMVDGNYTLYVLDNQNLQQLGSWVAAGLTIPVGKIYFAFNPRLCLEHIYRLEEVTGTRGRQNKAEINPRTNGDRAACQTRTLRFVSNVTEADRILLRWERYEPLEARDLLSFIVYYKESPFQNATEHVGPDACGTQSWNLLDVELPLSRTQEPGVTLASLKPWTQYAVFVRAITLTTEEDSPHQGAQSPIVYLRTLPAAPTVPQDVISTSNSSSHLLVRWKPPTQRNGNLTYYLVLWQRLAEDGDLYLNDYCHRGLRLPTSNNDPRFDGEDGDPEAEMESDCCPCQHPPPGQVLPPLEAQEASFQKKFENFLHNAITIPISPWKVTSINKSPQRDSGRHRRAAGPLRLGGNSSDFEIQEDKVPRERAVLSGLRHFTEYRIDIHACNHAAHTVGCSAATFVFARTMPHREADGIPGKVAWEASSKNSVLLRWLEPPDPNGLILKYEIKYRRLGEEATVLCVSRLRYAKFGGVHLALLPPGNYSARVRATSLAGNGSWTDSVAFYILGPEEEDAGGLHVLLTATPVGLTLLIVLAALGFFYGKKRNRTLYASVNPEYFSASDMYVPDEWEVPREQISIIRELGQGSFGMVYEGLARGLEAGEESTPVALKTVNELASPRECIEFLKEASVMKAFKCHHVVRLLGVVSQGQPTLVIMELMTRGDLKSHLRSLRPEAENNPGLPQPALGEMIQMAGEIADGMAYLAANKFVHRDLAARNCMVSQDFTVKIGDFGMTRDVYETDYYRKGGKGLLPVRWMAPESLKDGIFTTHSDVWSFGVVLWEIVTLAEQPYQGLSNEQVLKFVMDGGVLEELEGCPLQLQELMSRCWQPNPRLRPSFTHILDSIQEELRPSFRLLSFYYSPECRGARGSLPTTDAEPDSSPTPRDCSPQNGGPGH
UniProt P06239: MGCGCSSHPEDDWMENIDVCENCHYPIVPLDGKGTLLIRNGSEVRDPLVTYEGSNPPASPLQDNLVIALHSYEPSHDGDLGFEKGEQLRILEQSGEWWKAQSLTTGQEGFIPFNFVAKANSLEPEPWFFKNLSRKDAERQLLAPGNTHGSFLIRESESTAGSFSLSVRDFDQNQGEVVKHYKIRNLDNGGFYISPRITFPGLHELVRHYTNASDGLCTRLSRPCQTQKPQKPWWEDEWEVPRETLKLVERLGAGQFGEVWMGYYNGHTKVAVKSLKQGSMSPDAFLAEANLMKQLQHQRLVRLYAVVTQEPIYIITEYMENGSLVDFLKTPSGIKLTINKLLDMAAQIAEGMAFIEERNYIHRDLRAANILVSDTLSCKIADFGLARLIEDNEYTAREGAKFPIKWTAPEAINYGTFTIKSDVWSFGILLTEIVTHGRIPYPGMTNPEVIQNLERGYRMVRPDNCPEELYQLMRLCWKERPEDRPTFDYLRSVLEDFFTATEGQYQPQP
UniProt P53667: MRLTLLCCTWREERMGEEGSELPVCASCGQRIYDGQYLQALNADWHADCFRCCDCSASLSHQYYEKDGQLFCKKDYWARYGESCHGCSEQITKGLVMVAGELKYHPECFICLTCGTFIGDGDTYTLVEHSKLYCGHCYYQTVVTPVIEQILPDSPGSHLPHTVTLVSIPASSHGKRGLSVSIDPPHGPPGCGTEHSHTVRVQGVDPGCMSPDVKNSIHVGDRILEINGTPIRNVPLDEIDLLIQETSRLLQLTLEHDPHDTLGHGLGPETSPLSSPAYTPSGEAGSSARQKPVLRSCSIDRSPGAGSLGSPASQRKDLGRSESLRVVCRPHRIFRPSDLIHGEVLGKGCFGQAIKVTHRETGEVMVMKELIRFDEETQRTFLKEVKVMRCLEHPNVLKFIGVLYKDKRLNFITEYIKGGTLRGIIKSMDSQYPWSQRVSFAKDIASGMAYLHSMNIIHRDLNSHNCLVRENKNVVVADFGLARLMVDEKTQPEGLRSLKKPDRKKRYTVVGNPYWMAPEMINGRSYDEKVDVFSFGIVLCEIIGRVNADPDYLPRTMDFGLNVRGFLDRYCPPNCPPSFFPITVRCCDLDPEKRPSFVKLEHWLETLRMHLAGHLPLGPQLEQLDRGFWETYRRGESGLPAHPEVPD

How the values were obtained:
Assay in all cases: number of time points (of 5) at which kinase-Nluc abundance scored as decreased, DMSO-normalised (count); higher = more persistent destabilization
Settings in all cases: K562; 2-18 h
[1] = target: EGFR_L861Q (UniProt P00533)
[2] = target: EGFR_T790M (UniProt P00533)
[3] = target: EPHA2 (UniProt P29317)
[4] = target: ERBB3 (UniProt P21860)
[5] = target: ERBB4_R711C (clone: ERBB4_mut) (UniProt Q15303)
[6] = target: ERN1 (UniProt O75460)
[7] = target: FGFR1 (UniProt P11362)
[8] = target: FGFR2 (UniProt P21802)
[9] = target: FGFR3 (UniProt P22607)
[10] = target: FGR (UniProt P09769)
[11] = target: FLT3 (UniProt P36888)
[12] = target: FYN (UniProt P06241)
[13] = target: GSK3A (UniProt P49840)
[14] = target: HER2 (UniProt P04626)
[15] = target: INSRR (UniProt P14616)
[16] = target: IRAK3 (UniProt Q9Y616)
[17] = target: JAK1 (UniProt P23458)
[18] = target: LCK (UniProt P06239)
[19] = target: LIMK1 (UniProt P53667)
[20] = target: LIMK2 (UniProt P53671)

Structure (SMILES)	number of time points [1]	number of time points [2]	number of time points [3]	number of time points [4]	number of time points [5]	number of time points [6]	number of time points [7]	number of time points [8]	number of time points [9]	number of time points [10]	number of time points [11]	number of time points [12]	number of time points [13]	number of time points [14]	number of time points [15]	number of time points [16]	number of time points [17]	number of time points [18]	number of time points [19]	number of time points [20]
Cc1cc(Nc2cc(N)ncn2)c(=O)n2c1C(=O)NC21CCCCC1 [Tomivosertib] (10 µM)	0	0	0	0	0	0	0	0	0	0	0	0	0	0	0	0	0	0	0	0
Cc1cc(Nc2cc(N3CCN(C)CC3)nc(Nc3ccc([N+](=O)[O-])cc3)n2)n[nH]1 (2.5 µM)	0	0	0	0	0	0	0	0	0	0	0	0	0	0	0	0	0	0	0	0
CNC(=O)c1cc2c(Oc3ccc(NC(=O)C4(C(=O)Nc5ccc(F)cc5)CC4)cc3)ccnc2cc1OC (2.5 µM)	2	1	0	3	2	2	2	3	1	0	1	3	0	0	3	2	2	0	3	1
Fc1ccc2[nH]ccc2c1-c1nc(N2CCOCC2)c2sc(CN3CCN(CC4CC4)CC3)cc2n1 (10 µM)	0	0	0	0	0	0	0	0	0	0	0	0	0	0	0	0	0	0	0	0
C[C@@H]1O[C@@H](Oc2cc(O)c3c(=O)c(O[C@@H]4O[C@@H](C)[C@H](O)[C@@H](O)[C@H]4O)c(-c4ccc(O)cc4)oc3c2)[C@H](O)[C@H](O)[C@H]1O [Kaempferitrin] (10 µM)	0	0	0	0	0	0	0	0	0	0	0	0	0	0	0	0	0	0	0	0
CO[C@H]1CC[C@H](N2C(=O)CNc3ncc(-c4ccc(C(C)(C)O)nc4)nc32)CC1 (2.5 µM)	0	0	0	0	0	0	0	0	0	0	0	0	0	0	0	0	0	0	0	0
NC(=O)c1ccc(N(C(N)=O)c2c(F)cccc2F)nc1-c1ccc(F)cc1F (10 µM)	0	0	0	0	0	0	0	0	0	0	0	0	0	0	0	0	0	0	0	0
COCCOCCc1c(C)c2cc(OC)c(O)c(C=O)c2oc1=O (10 µM)	0	0	0	0	0	0	0	0	0	0	0	0	0	0	0	0	0	0	0	0
CC(C)n1c(=O)n(C)c2cnc3cc(F)c(-c4ccc(OCCCN5CCCCC5)nc4)cc3c21 (10 µM)	0	0	0	0	0	0	0	0	0	0	0	0	0	0	0	0	0	0	0	0
c1nn(C2CCOCC2)cc1Nc1ncc2nnn(-c3ccc4cn[nH]c4c3)c2n1 (10 µM)	0	0	0	0	0	0	0	0	0	0	0	0	0	0	0	0	0	0	0	0
COC(=O)Nc1ccc(-c2nc(N3CCOCC3)c3cnn(C4CCN(C(=O)OC)CC4)c3n2)cc1 (10 µM)	0	0	0	0	0	0	0	0	0	0	0	0	0	0	0	0	0	0	0	0
O=C(ON=C1c2ccccc2-c2nc3ccccc3nc21)c1ccco1 (2.5 µM)	0	0	0	0	0	0	0	0	0	0	0	0	0	0	0	0	0	0	0	0
NC(=O)c1cnc(-c2ccc(C3(N)CCC3)cc2)c(-c2ccccc2)c1 (10 µM)	0	0	0	0	0	0	0	0	0	0	0	0	0	0	0	0	0	0	0	0
N#C/C(=C\c1ccc(O)c(O)c1)C(=O)O [Tyrphostin AG30] (10 µM)	0	0	0	0	0	0	0	0	0	0	0	0	0	0	0	0	0	0	0	0
C[C@H]1O[C@@H](O[C@H]2CC[C@@]3(C)[C@@H](CC[C@]4(C)[C@@H]3C=C[C@]35OC[C@@]6(CCC(C)(C)C[C@H]63)[C@H](O)C[C@]54C)[C@]2(C)CO)[C@H](O)[C@@H](O[C@@H]2O[C@H](CO)[C@@H](O)[C@H](O)[C@H]2O)[C@H]1O [Saikosaponin D] (2.5 µM)	0	0	0	0	1	0	0	3	0	0	0	0	0	0	0	0	0	0	0	1
O=C1OC(/C=C/c2ccccc2)=NC/1=C\c1cccnc1 (10 µM)	0	0	0	0	0	0	0	0	0	0	0	0	0	0	0	0	0	0	0	0
Cc1ccc(C)c(OCCn2cc(C(=O)O)c3ccccc32)c1 (10 µM)	0	0	0	0	0	0	0	0	0	0	0	0	0	0	0	0	0	0	0	0
Nc1nccc(-c2c(-c3ccc(F)cc3)ncn2C2CCCCC2)n1 (10 µM)	0	0	0	0	0	0	0	0	0	0	0	0	0	0	0	0	0	0	0	0
O=C(Nc1ccc(Cl)cc1)C1CCCN(C(=O)c2cc(C(F)(F)F)cc(C(F)(F)F)c2)C1 (stereo not given) (10 µM)	0	0	0	0	0	0	0	1	0	0	0	0	0	2	0	0	0	0	4	1
O=c1cc(N2CCOCC2)oc2c(-c3ccc4c(c3)OCCO4)csc12 (2.5 µM)	0	0	0	0	0	0	0	0	0	0	0	0	0	0	0	0	0	0	0	0
Cc1nc[nH]c1CN1CCN(C(=O)N[C@@H](CC(C)C)C(=O)O)[C@@H](Cc2ccccc2)C1=O (10 µM)	0	0	0	0	0	0	0	0	0	0	0	0	0	0	0	0	0	0	0	0
COCCOc1ccc2c(c1)ncn2-c1ccc2cccc(N3CCC(N)CC3)c2n1 (10 µM)	3	0	2	3	4	0	3	3	0	0	3	4	0	2	2	3	3	0	0	0
O=C1Nc2ccc(CN3C(=O)CSC3=O)cc2/C1=C/c1cc(CN2CCOCC2)c[nH]1 (10 µM)	0	0	0	0	0	0	0	0	0	0	0	0	0	0	0	0	0	0	0	0
NCC1CCC(CNc2nc(NCc3ccccc3OC(F)(F)F)ncc2[N+](=O)[O-])CC1 (stereo not given) [PKC-theta inhibitor] (10 µM)	4	2	5	5	5	4	5	4	4	0	3	0	0	3	4	1	2	0	5	4
CC(C)n1ncnc1-c1cn2c(n1)-c1ccc(O[C@@H](C)C(N)=O)cc1OCC2 (10 µM)	0	0	0	0	0	0	0	0	0	0	0	0	0	0	0	0	0	0	0	0

In a second layout: entries from further up.
Structure (SMILES),number of time points [1],number of time points [2],number of time points [3],number of time points [4],number of time points [5],number of time points [6],number of time points [7],number of time points [8],number of time points [9],number of time points [10],number of time points [11],number of time points [12],number of time points [13],number of time points [14],number of time points [15],number of time points [16],number of time points [17],number of time points [18],number of time points [19],number of time points [20]
O=c1cc(N2CCOCC2)oc2c(-c3ccc4c(c3)OCCO4)csc12 (2.5 µM),0,0,0,0,0,0,0,0,0,0,0,0,0,0,0,0,0,0,0,0
Cc1nc[nH]c1CN1CCN(C(=O)N[C@@H](CC(C)C)C(=O)O)[C@@H](Cc2ccccc2)C1=O (10 µM),0,0,0,0,0,0,0,0,0,0,0,0,0,0,0,0,0,0,0,0
